Source: the supplement of paper PMC4604168 (melanoma cell lines)
This is one part of the list. Many values rest on one well or one pass, so single values are uncertain.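 Imaging used 1,536-well plates; nuclei positive for cleaved PARP by antibody were divided by total DNA-stained nuclei to yield the apoptosis fraction. Doses for screening kept most cells viable, and cell lines differ markedly in resting and induced cleaved-PARP levels.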

These compounds were tested on CBRC014 (line from a melanoma biopsy) (assay: cleaved PARP positive nuclei fraction relative to DMSO control; melanoma cells; higher = more apoptosis). Settings: library dose: low library concentration; 72 h.

Row | SMILES | cleaved PARP positive nuclei fraction
1 | Cn1cncc1[C@@](N)(c1ccc(Cl)cc1)c1ccc2c(c1)c(-c1cccc(Cl)c1)cc(=O)n2C [tipifarnib] + c1cc(-c2cnn3cc(-c4ccc(OCCN5CCCCC5)cc4)cnc23)ccn1 [Dorsomorphin] (first compound 0.01 µM, partner dose 0.4 µM) | 94.1%
2 | Cc1cc(N2CCOCC2)cc2[nH]c(-c3c(NC[C@@H](O)c4cccc(Cl)c4)cc[nH]c3=O)nc12 + Cn1cc(/C=C2\C(=O)Nc3cccnc32)c2ccccc21 [GW441756] (first compound 0.2 µM, partner dose 0.4 µM) | 91.6%
3 | Cn1c(Nc2ccc(C(F)(F)F)cc2)nc2cc(Oc3ccnc(-c4ncc(C(F)(F)F)[nH]4)c3)ccc21 + Oc1nc(-c2ccc(C(F)(F)F)cc2)nc2c1CSCC2 [XAV939] (first compound 0.08 µM, partner dose 2 µM) | 102%
4 | Cn1nnc2c(C(N)=O)ncn2c1=O [temozolomide] + CC(C)CCN1c2nc(Nc3cc(F)c(O)c(F)c3)ncc2N(C)C(=O)C1C [BID1870] (first compound 2 µM, partner dose 0.2 µM) | 120%
5 | C[C@]1(c2nc3c(C(N)=O)cccc3[nH]2)CCCN1 [Veliparib] + O=C(O)C(=O)Nc1sc2c(c1C(=O)O)CCNC2 [TCS401] (first compound 1.4 µM, partner dose 1.66667 µM) | 98.1%
6 | O=C(Nc1cccc(Cl)c1)Nc1ncc(CCNc2ncnc3ccsc23)s1 + COc1cc2ncnc(Nc3ccc(Oc4ccccc4)cc3)c2cc1OC [SrcI1] (first compound 0.0008 µM, partner dose 2 µM) | 90.8%
7 | NC(=O)Nc1cc(-c2cccc(F)c2)sc1C(=O)N[C@H]1CCCNC1 + O=c1cc(-c2cccc3c2Sc2ccccc2S3)oc(N2CCOCC2)c1 [KU55933] (first compound 0.02 µM, partner dose 1 µM) | 106%
8 | CC(C)(C)c1cnc(CSc2cnc(NC(=O)C3CCNCC3)s2)o1 + N#Cc1c(O)c2c(-c3ccc(-c4ccccc4O)cc3)csc2[nH]c1=O [A769662] (first compound 0.01 µM, partner dose 2 µM) | 110%
